Data reported in article PMC6191436.
Results are given in words; binding and its absence hold for the method and conditions named. In cells and extracts the contact can be indirect. These calls come from enrichment with a bait or labelling near it, and not all partners need be listed.

Protein sequences, listed by entry. Tags and fused reporters are not part of them.
UniProt P14635: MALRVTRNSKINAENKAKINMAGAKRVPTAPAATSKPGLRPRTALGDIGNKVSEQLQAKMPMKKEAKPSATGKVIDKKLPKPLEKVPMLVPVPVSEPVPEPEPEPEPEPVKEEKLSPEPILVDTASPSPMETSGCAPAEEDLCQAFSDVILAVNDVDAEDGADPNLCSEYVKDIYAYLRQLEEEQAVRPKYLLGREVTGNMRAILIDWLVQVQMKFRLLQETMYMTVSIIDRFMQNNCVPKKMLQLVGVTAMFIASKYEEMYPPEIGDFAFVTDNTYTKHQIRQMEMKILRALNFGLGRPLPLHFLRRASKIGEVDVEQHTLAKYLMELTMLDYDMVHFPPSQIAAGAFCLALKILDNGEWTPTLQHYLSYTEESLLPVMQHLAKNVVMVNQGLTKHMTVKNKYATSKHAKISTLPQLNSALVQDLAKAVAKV

Biological target: His-tagged BRCA1-Δ11 (UniProt P38398)
Experiment: affinity purification with mass spectrometry; His-tagged BRCA1-Δ11 expressed in MCF7 cells, with or without irradiation; extracts on Ni-NTA affinity chromatography; eluates on SDS-PAGE, silver staining; band identified by MALDI-TOF mass spectrometry

Q: With “cyclin B1 (endogenous, MCF7) (from UniProt P14635 1-433)” as the substance, how does the binding read?
A: The binding was “binds”.
